No constants are given. Whether binding was seen depends on the method and setting. In cells and extracts the contact can be indirect. Some binding calls cover weakened binding; strength is not graded here. Sequences can lack the tags named with a protein.

For one molecule, binding results are on record in PMC7237480.

In the assay the target is T1, AtIBH1-cYFP (Arabidopsis thaliana) (UniProt Q9SKX1).
T1 sequence: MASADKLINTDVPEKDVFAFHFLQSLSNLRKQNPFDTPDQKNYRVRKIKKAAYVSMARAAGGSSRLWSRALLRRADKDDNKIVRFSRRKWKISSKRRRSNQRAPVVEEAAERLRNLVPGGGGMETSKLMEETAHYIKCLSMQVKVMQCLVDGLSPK
Nature of the assay: split reporter; nYFP and cYFP fusions co-transformed into Arabidopsis mesophyll protoplasts (the legend says gerbera); dark, 23 °C, 22 h; confocal microscopy.

B1: AtHBI1-nYFP (protein, UniProt Q9ZPW3 1-337)
chain: MLEGLVSQESLSLNSMDMSVLERLKWVQQQQQQLQQVVSHSSNNSPELLQILQFHGSNNDELLESSFSQFQMLGSGFGPNYNMGFGPPHESISRTSSCHMEPVDTMEVLLKTGEETRAVALKNKRKPEVKTREEQKTEKKIKVEAETESSMKGKSNMGNTEASSDTSKETSKGASENQKLDYIHVRARRGQATDRHSLAERARREKISKKMKYLQDIVPGCNKVTGKAGMLDEIINYVQCLQRQVEFLSMKLAVLNPELELAVEDVSVKQFQAYFTNVVASKQSIMVDVPLFPLDQQGSLDLSAINPNQTTSIEAPSGSWETQSQSLYNTSSLGFHY
Regarding B1, the binding entry was “binds”.
